Results from patent US20070167400A1, “Chitosan oligosaccharides and uses thereof” (priority 2001, published 2007).
At least one compound was matched to its structure with a doubt left.

System: IL-1β release by human keratinocytes
Experiment: IL-1β release by human keratinocytes (ELISA), unstimulated, UVB or PMA stimulated
Assay type: cell-based
Conditions: PMA stimulation
Description: • Reference 1: (PGE2 induction): Indomethacin (Sigma 17378), tested at 1 μM (final) • Reference 2: (IL1β induction): Dexamethazone (Sigma D1756), tested at 0.1 μM (final) Treatments and Assays
Other plates were kept in the dark.
After thawing and centrifugation of the medium, the content in PGE2 was measured in ELISA with a R&D Systems kit (DE0100), according to the recommended protocol of the supplier. The IL1β content was measured in ELISA with a Immunotech kit (1042), according to the recommended protocol of the supplier.
The raw data were transformed and treated by the software PRISM® (Graph Pad Software). The intergroup comparisons were realized by analysis of variance (ANOVA), with the multiple comparison test DUNNETT.

C[C@@H]1C[C@H]2[C@@H]3CCC4=CC(=O)C=C[C@]4(C)[C@@]3(F)[C@@H](O)C[C@]2(C)[C@@]1(O)C(=O)CO [dexamethasone, Dexamethazone]
effect on IL-1β release induced by PMA (in words): significantly inhibited the production/release of IL-1β
